Values are relative to the signal before dosing, not to a vehicle control; the signal also falls without drug.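 Fibroblast labels name human fibroblasts: mostly primary ones from tissues such as uterus (C12385, HUF), lung (H6013), bone (Hs27A), adrenal (HADF) and skin (WS1), plus mammary HMF and breast cancer-associated Hs343T. The cancer cells are basal-like or mesenchymal-like triple-negative breast cancer lines. The paper calls a changed response a hit when it shifts by more than 3x the replicate standard deviation. The tissue of the other fibroblasts is not given here.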
System: Hs578T
Assay: relative JC-1 red fluorescence (viability) vs pre-drug, coculture with fibroblast (fraction); higher = more viable cancer cells
Details: 0.1 µM
Method: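 JC-1 labelled TNBC cells cocultured 1:1 (1,500 cells each) with CellTrace Violet stained primary or stromal fibroblasts in 384-well plates in FluoroBrite medium, treated with one of 42 anticancer drugs at 0.1, 1, 10 or 100 uM. JC-1 red fluorescence (mitochondrial integrity in cancer cells only) was read by plate reader every 8 h for 72 h. Values are normalised to each well's pre-drug value. The stock of one drug was tenfold lower, so its dose labels may be too high.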

CCc1c2c(nc3ccc(OC(=O)N4CCC(N5CCCCC5)CC4)cc13)-c1cc3c(c(=O)n1C2)COC(=O)[C@]3(O)CC [Irinotecan]
Details	relative JC-1 red fluorescence
8 h	0.822
16 h	0.7677
24 h	0.754
32 h	0.733
40 h	0.6844
48 h	0.657
56 h	0.637
64 h	0.597
72 h	0.586

relative JC-1 red fluorescence
Details	8 h	16 h	24 h	32 h	40 h	48 h	56 h	64 h	72 h
coculture fibroblast: C12385	0.809	0.711	0.7217	0.623	0.567	0.543	0.5172	0.5118	0.5166
coculture fibroblast: H6013	0.843	0.822	0.807	0.798	0.778	0.783	0.766	0.773	0.748
coculture fibroblast: H6019	0.764	0.6891	0.658	0.557	0.526	0.501	0.47	0.449	0.424
coculture fibroblast: H6076	0.8406	0.791	0.801	0.81	0.794	0.822	0.835	0.847	0.858
coculture fibroblast: H6231	0.885	0.7881	0.744	0.718	0.662	0.636	0.6	0.581	0.563
coculture fibroblast: HADF	0.8811	0.78	0.721	0.669	0.626	0.598	0.567	0.564	0.539
coculture fibroblast: HCFa	0.848	0.812	0.765	0.709	0.664	0.641	0.6	0.587	0.547
coculture fibroblast: HCPF	0.891	0.8127	0.7754	0.7521	0.705	0.682	0.666	0.643	0.627
coculture fibroblast: HHSteC	0.886	0.858	0.834	0.807	0.766	0.743	0.719	0.708	0.67
coculture fibroblast: HMF	0.835	0.763	0.753	0.757	0.713	0.699	0.689	0.672	0.672
coculture fibroblast: HPFa	0.9098	0.814	0.748	0.691	0.65	0.611	0.563	0.535	0.488
coculture fibroblast: HUF	0.883	0.76	0.765	0.655	0.602	0.571	0.548	0.545	0.539
coculture fibroblast: Hs27A	0.886	0.8	0.759	0.693	0.623	0.59	0.547	0.527	0.471
coculture fibroblast: Hs343T	0.827	0.73	0.7092	0.706	0.651	0.632	0.61	0.605	0.62
coculture fibroblast: WS1	0.784	0.693	0.637	0.54	0.485	0.465	0.436	0.433	0.425

— the supplement of paper PMC6078165
